Data on 42 sequences can be found in paper PMC7819943, “Rice protein-binding microarrays: a tool to detect cis-acting elements near promoter regions in rice”.

The chains behind the UniProt entries cited, without tags or fusion partners.
UniProt Q0JBA9, entry or part of it: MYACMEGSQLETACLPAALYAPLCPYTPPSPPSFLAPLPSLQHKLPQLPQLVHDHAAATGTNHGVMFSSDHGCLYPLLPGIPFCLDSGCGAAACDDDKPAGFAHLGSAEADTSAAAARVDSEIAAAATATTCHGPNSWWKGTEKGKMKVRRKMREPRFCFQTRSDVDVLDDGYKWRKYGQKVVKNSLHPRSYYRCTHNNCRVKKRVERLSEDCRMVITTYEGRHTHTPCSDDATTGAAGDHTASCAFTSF

Some of the results follow.

The assay addresses OsWRKY34 (Oryza sativa, UniProt Q0JBA9 1-250). Kind of assay: protein-binding microarray (RPBM); PBS, 2% BSA, 51.3 ng/ul salmon testes DNA, 50 uM zinc acetate, 200 nM TF, 25 C, 1 h; high values mean tight binding. Particulars: protein: recombinant; tags: N-terminal polyhistidine and DsRed monomer fusion (pET32a); label: CyDye5-dUTP incorporated in the synthesized complementary strand; 3' TTTTT single-stranded linker to array surface; dsDNA, one strand shown. Put shortly:
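Transcription factors were made in E. coli BL21-CodonPlus as N-terminal fusions to a polyhistidine tag and DsRed, then purified on Ni–NTA. After primer extension with Cy5-dUTP and blocking with 2% BSA, a custom Agilent array was exposed for 1 h at 25 °C to 200 nM protein in PBS, 2% BSA, salmon testes DNA and 50 µM zinc acetate. Washed arrays were scanned on an Axon 4000B, and the binding signal is per-feature fluorescence intensity in arbitrary units.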
On to “AATTTAGTCTGTACTGCAGCTTATAAAGCTGTCCCATACTCGGAGTCACCTAGTGCAG”, for which the binding signal is 8110 fluorescence intensity (a.u.).

Take “AGGCAAGAGCTAATCTTCGTGTTTCTTATCTTTTCTTATTCGGAGTCACCTAGTGCAG”: the binding signal was 8040 fluorescence intensity (a.u.).

With “CATTGCTGCCGTCTTCTACCTTATTACCCAAACTCGTAGACGGAGTCACCTAGTGCAG”, the binding signal is 8860 fluorescence intensity (a.u.).

For the sequence “CGAAGACAGCATCTCGTTGACCCTTGTCCTTGACACTGTTCGGAGTCACCTAGTGCAG”, the binding signal is 11700 fluorescence intensity (a.u.).

With “CATGAAAACAGAGCGTCTTATCTTATCTGCATCCAACTGTCGGAGTCACCTAGTGCAG”, the binding signal was 9330 fluorescence intensity (a.u.).

“CTTTGCACAGAGTTCTTATCTCAGTTTTCCTAACTCACCTCGGAGTCACCTAGTGCAG”: the binding signal was 11300 fluorescence intensity (a.u.).

For “GGTACAATCCTCCAATTCCCATTCCCATTCCCATTCCCAACGGAGTCACCTAGTGCAG”, the binding signal is 8160 fluorescence intensity (a.u.).

As to “AAATCATACTATCCCATGTGTTACTGTACTACTATACGGTCGGAGTCACCTAGTGCAG”, the binding signal was 8280 fluorescence intensity (a.u.).

With “TTTCTTGTTGCTGGGTCTGGATTAGGCCTATTACTTCTATCGGAGTCACCTAGTGCAG”, the binding signal is 8390 fluorescence intensity (a.u.).

As to “GAGTGCATTTCCTGGGTATTATTTTTGTTATCATTTATATCGGAGTCACCTAGTGCAG”, the binding signal was 9800 fluorescence intensity (a.u.).

Take “CATGATCAAATCTGGCGTACGTTACCGTTTTACTAGATTACGGAGTCACCTAGTGCAG”: the binding signal is 8870 fluorescence intensity (a.u.).

As for “TCAGGTGATCTTCCATTCTTCCCATCATTATTTCTTTGATCGGAGTCACCTAGTGCAG”, the binding signal was 12700 fluorescence intensity (a.u.).

Turning to “AATGTATGACGCAGTTGACTTTGTGACAAACGTTTGACCTCGGAGTCACCTAGTGCAG”, the binding signal was 12300 fluorescence intensity (a.u.).

With “GAGGGGTGCTTGGAGTGCGGGGTGTGCTATCAATGATGGTCGGAGTCACCTAGTGCAG”, the binding signal is 10700 fluorescence intensity (a.u.).

On to “TTGACGCCGTTGACTTTTTAGTACATGTTTGACCATTCGTCGGAGTCACCTAGTGCAG”, for which the binding signal is 49900 fluorescence intensity (a.u.).

As to “TTGACCTTTTCTCACATGTTTAACCATTCGTCTTATTTAACGGAGTCACCTAGTGCAG”, the binding signal is 13500 fluorescence intensity (a.u.).

As for “TTTGCATAGTTAGGGGTGAAGACTGTCCGGTTTTGTGGTTCGGAGTCACCTAGTGCAG”, the binding signal was 8200 fluorescence intensity (a.u.).

Consider “GTCCAAACTAACCCCACCAAAGCTAAAACGTCATTTATTTCGGAGTCACCTAGTGCAG”, for which the binding signal was 8970 fluorescence intensity (a.u.).

With “TACGGTCTCGTCGGTATCATCGAATTCTGTTATTCCCTTTCGGAGTCACCTAGTGCAG”, the binding signal is 8410 fluorescence intensity (a.u.).

Turning to “TGGCTCATTTACGTTTCGTTTAGGTTTCTCCATTCATCAACGGAGTCACCTAGTGCAG”, the binding signal was 8760 fluorescence intensity (a.u.).

With “GGCCCCTACTGGCGCCTCGTCCGCCGCAACCTCGCCTCCGCGGAGTCACCTAGTGCAG”, the binding signal was 8340 fluorescence intensity (a.u.).

As to “ACCTTGACTCCTCCAATTCTCCTTTATTTTTTCTGTCTATCGGAGTCACCTAGTGCAG”, the binding signal is 14900 fluorescence intensity (a.u.).

With “CCCTACCGTTACATTTTTCCATCATTTTACTGTTACGTTTCGGAGTCACCTAGTGCAG”, the binding signal was 11000 fluorescence intensity (a.u.).

Take “CGTACTGGGCTGGGCTGGGCTGGGATTCAACCGAACGGGGCGGAGTCACCTAGTGCAG”: the binding signal was 20400 fluorescence intensity (a.u.).

As to “TCCATTTTGTCGGTTCTTCTCTTGATCTGTCGGTGTTCTTCGGAGTCACCTAGTGCAG”, the binding signal is 11100 fluorescence intensity (a.u.).

For “TTTTGTCTGCTAGGGGTAGTAAGGTGGGGCCACTGAAAAACGGAGTCACCTAGTGCAG”, the binding signal was 9640 fluorescence intensity (a.u.).

As for “ACTGTATATTCTCAAGGGCGGGCTCCGTCAGGGTGATGTCCGGAGTCACCTAGTGCAG”, the binding signal was 11800 fluorescence intensity (a.u.).

On to “CTCAAGAGGATGTCCCCACGTGTATCTTTTCCTTTCAAATCGGAGTCACCTAGTGCAG”, for which the binding signal was 8890 fluorescence intensity (a.u.).

On to “CTTCGCTTGCTCTCTTCTCTTCTCCGAGGTGCCAAACATACGGAGTCACCTAGTGCAG”, for which the binding signal is 11200 fluorescence intensity (a.u.).

As for “TAGGGGTTAGTGTGCGAGCATGTGCTGTGTAATTTTTTAACGGAGTCACCTAGTGCAG”, the binding signal is 10600 fluorescence intensity (a.u.).

As to “TGACCGAGCCATTCGACTCACTGAGCTTGTTTCTTGTCATCGGAGTCACCTAGTGCAG”, the binding signal was 8400 fluorescence intensity (a.u.).

With “GATTACTTAGTGTCAAGCGCTCTTCGTCGATGTCGACGCTCGGAGTCACCTAGTGCAG”, the binding signal was 8410 fluorescence intensity (a.u.).

On to “ACAAAAGTGGACATTGGGTGGGTCAAAACTGGGATTAAATCGGAGTCACCTAGTGCAG”, for which the binding signal was 11200 fluorescence intensity (a.u.).

“TTTCCGCCCACATCGCCTTCTACCTCTCGCACTCCGCTAGCGGAGTCACCTAGTGCAG”: the binding signal is 13200 fluorescence intensity (a.u.).

On to “CTCGCTGTCTTTCTCTATCTAGCGGGTCGCGGTGAGTCGTCGGAGTCACCTAGTGCAG”, for which the binding signal was 9420 fluorescence intensity (a.u.).

On to “GCCATCCATCCATTCCGCGTTTTCCCCGCCCACCGGTCAACGGAGTCACCTAGTGCAG”, for which the binding signal is 15800 fluorescence intensity (a.u.).

As for “GAGCTGCCGTTTTCTGTGATCTCCGTTGCTCAATCTAGTCCGGAGTCACCTAGTGCAG”, the binding signal is 9590 fluorescence intensity (a.u.).

Consider “ATCGCCGCCGCCGACGTCGCCGACGCCATCGCCAACGTTCCGGAGTCACCTAGTGCAG”, for which the binding signal is 8550 fluorescence intensity (a.u.).

On to “CCACCACGACGGCGTCCAGCGGCGTCGCGGCGCTGGCGGTCGGAGTCACCTAGTGCAG”, for which the binding signal is 9960 fluorescence intensity (a.u.).

Take “GGATCTCCTTCTCGTGCTCTCTCTCTCTCTCTCTCTCTCTCGGAGTCACCTAGTGCAG”: the binding signal was 11100 fluorescence intensity (a.u.).

As to “CCCACCCCTGCTCGCCCGCGCACCCAGCTCACCAGCGCACCGGAGTCACCTAGTGCAG”, the binding signal was 12300 fluorescence intensity (a.u.).

For the sequence “CGTGTAGCCATAAGTTTCCGTGTCCAACATTTGACCATCTCGGAGTCACCTAGTGCAG”, the binding signal is 10700 fluorescence intensity (a.u.).
